# Source: the supplement of paper PMC8728848
# Some of the results follow.
# Key:
# Test in all cases: glycan array binding signal (z-score within array); higher = stronger binding
# Details in all cases: glycan notation: IUPAC condensed, linker removed
# [1] = molecular target: Gal(b1-4)GlcNAc(b1-3)Gal(b1-4)GlcNAc(b1-3)Gal(b1-4)GlcNAc(b1-3)Gal(b1-4)GlcNAc(b1-2)Man(a1-3)[Gal(b1-4)GlcNAc(b1-3)Gal(b1-4)GlcNAc(b1-3)Gal(b1-4)GlcNAc(b1-3)Gal(b1-4)GlcNAc(b1-2)Man(a1-6)]Man(b1-4)GlcNAc(b1-4)GlcNAc
# Summary of the method: (§1)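 Columns mapping to the same glycan were averaged after glycan names were converted to IUPAC-condensed notation. The data come from 3228 arrays in the Consortium for Functional Glycomics database, limited to those with an available protein sequence. Binding is reported as a within-array Z-score averaged across arrays of one protein sequence and across linkers.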
# [2] = molecular target: Gal(b1-4)GlcNAc(b1-3)Gal(b1-4)GlcNAc(b1-3)Gal(b1-4)GlcNAc(b1-3)Gal(b1-4)GlcNAc(b1-2)Man(a1-3)[Gal(b1-4)GlcNAc(b1-3)Gal(b1-4)GlcNAc(b1-3)Gal(b1-4)GlcNAc(b1-3)Gal(b1-4)GlcNAc(b1-2)Man(a1-6)]Man(b1-4)GlcNAc(b1-4)[Fuc(a1-6)]GlcNAc
# Summary of the method: as §1
# [3] = molecular target: Gal(b1-4)GlcNAc(b1-3)Gal(b1-4)GlcNAc(b1-3)Gal(b1-4)GlcNAc(b1-3)Gal(b1-4)GlcNAc(b1-2)[Gal(b1-4)GlcNAc(b1-3)Gal(b1-4)GlcNAc(b1-3)Gal(b1-4)GlcNAc(b1-3)Gal(b1-4)GlcNAc(b1-6)]Man(a1-6)[Gal(b1-4)GlcNAc(b1-3)Gal(b1-4)GlcNAc(b1-3)Gal(b1-4)GlcNAc(b1-3)Gal(b1-4)GlcNAc(b1-2)Man(a1-3)]Man(b1-4)GlcNAc(b1-4)[Fuc(a1-6)]GlcNAc
# Summary of the method: as §1
# [4] = molecular target: Gal(b1-4)GlcNAc(b1-3)Gal(b1-4)GlcNAc(b1-3)Gal(b1-4)GlcNAc(b1-3)Gal(b1-4)GlcNAc(b1-3)Gal(b1-4)GlcNAc(b1-2)Man(a1-3)[Gal(b1-4)GlcNAc(b1-3)Gal(b1-4)GlcNAc(b1-3)Gal(b1-4)GlcNAc(b1-3)Gal(b1-4)GlcNAc(b1-3)Gal(b1-4)GlcNAc(b1-2)Man(a1-6)]Man(b1-4)GlcNAc(b1-4)GlcNAc
# Summary of the method: as §1
# [5] = molecular target: Gal(b1-4)GlcNAc(b1-3)Gal(b1-4)GlcNAc(b1-3)Gal(b1-4)GlcNAc(b1-3)Gal(b1-4)GlcNAc(b1-3)Gal(b1-4)GlcNAc(b1-2)Man(a1-3)[Gal(b1-4)GlcNAc(b1-3)Gal(b1-4)GlcNAc(b1-3)Gal(b1-4)GlcNAc(b1-3)Gal(b1-4)GlcNAc(b1-3)Gal(b1-4)GlcNAc(b1-2)Man(a1-6)]Man(b1-4)GlcNAc(b1-4)[Fuc(a1-6)]GlcNAc
# Summary of the method: as §1
# [6] = molecular target: Gal(b1-4)GlcNAc(b1-3)Gal(b1-4)GlcNAc(b1-3)Gal(b1-4)GlcNAc(b1-3)Gal(b1-4)GlcNAc(b1-3)Gal(b1-4)GlcNAc(b1-2)[Gal(b1-4)GlcNAc(b1-3)Gal(b1-4)GlcNAc(b1-3)Gal(b1-4)GlcNAc(b1-3)Gal(b1-4)GlcNAc(b1-3)Gal(b1-4)GlcNAc(b1-6)]Man(a1-6)[Gal(b1-4)GlcNAc(b1-3)Gal(b1-4)GlcNAc(b1-3)Gal(b1-4)GlcNAc(b1-3)Gal(b1-4)GlcNAc(b1-3)Gal(b1-4)GlcNAc(b1-2)Man(a1-3)]Man(b1-4)GlcNAc(b1-4)[Fuc(a1-6)]GlcNAc
# Summary of the method: as §1
# [7] = molecular target: Gal(b1-4)GlcNAc(b1-3)Gal(b1-4)GlcNAc(b1-3)Gal(b1-4)GlcNAc(b1-3)Gal(b1-4)GlcNAc(b1-3)Gal(b1-4)GlcNAc(b1-3)Gal(b1-4)GlcNAc(b1-2)Man(a1-3)[Gal(b1-4)GlcNAc(b1-3)Gal(b1-4)GlcNAc(b1-3)Gal(b1-4)GlcNAc(b1-3)Gal(b1-4)GlcNAc(b1-3)Gal(b1-4)GlcNAc(b1-3)Gal(b1-4)GlcNAc(b1-2)Man(a1-6)]Man(b1-4)GlcNAc(b1-4)GlcNAc
# Summary of the method: as §1
# [8] = molecular target: Gal(b1-4)GlcNAc(b1-3)Gal(b1-4)GlcNAc(b1-3)GalNAc
# Summary of the method: as §1
# [9] = molecular target: Gal(b1-4)GlcNAc(b1-3)Gal(b1-4)GlcNAc(b1-3)[Gal(b1-4)GlcNAc(b1-3)Gal(b1-4)GlcNAc(b1-6)]GalNAc
# Summary of the method: as §1
# [10] = molecular target: Gal(b1-4)GlcNAc(b1-3)Gal(b1-4)GlcNAc(b1-6)[Gal(b1-3)]GalNAc
# Summary of the method: as §1
# [11] = molecular target: Gal(b1-4)GlcNAc(b1-3)Gal(b1-4)[Fuc(a1-3)GlcNAc(b1-6)]Gal(b1-4)Glc
# Summary of the method: as §1
# [12] = molecular target: Gal(b1-4)GlcNAc(b1-3)Gal(b1-4)[Fuc(a1-3)]GlcNAc(b1-3)Gal(b1-4)[Fuc(a1-3)]GlcNAc
# Summary of the method: as §1
# [13] = molecular target: Gal(b1-4)GlcNAc(b1-3)GalNAc
# Summary of the method: as §1
# [14] = molecular target: Gal(b1-4)GlcNAc(b1-3)[Fuc(a1-3)GlcNAc(b1-6)]Gal(b1-4)Glc
# Summary of the method: as §1
# [15] = molecular target: Gal(b1-4)GlcNAc(b1-3)[Gal(b1-4)GlcNAc(b1-6)]Gal(b1-4)GlcNAc
# Summary of the method: as §1
# [16] = molecular target: Gal(b1-4)GlcNAc(b1-3)[Gal(b1-4)GlcNAc(b1-6)]GalNAc
# Summary of the method: as §1
# [17] = molecular target: Gal(b1-4)GlcNAc(b1-3)[GlcNAc(b1-6)]Gal(b1-4)GlcNAc
# Summary of the method: as §1
# [18] = molecular target: Gal(b1-4)GlcNAc(b1-6)Gal(b1-4)GlcNAc
# Summary of the method: as §1
# [19] = molecular target: Gal(b1-4)GlcNAc(b1-6)GalNAc
# Summary of the method: as §1
binder,measurement,setting,value
"GST-Gap1 (Streptococcus parasanguinis), A1C3L5 (protein) MFYFVPSWYNGQRQWYYDTPWWFRVKNRMTFDDSVNQVKMFLQGQEEIGLMILNYQPQLRYFLHKQNIFGIYYWSFFDDIQNITRSYTKIIHLKDLNWPEGCEFLYSPFAVVVRLKGEIFAIVNYAEDGNLHSVSFQKNGKVTKDYIFDDRGFLSSILYYDIDERPLYQDYLNINGVWQVREFLKKENDPTPILMINDFSDQTFSKKYYNGWEELIKERLAIFQNNHVENEDVFVLASDTQHNQLVSSIFKEHRKIYSFFGNRFNLENLGQDRISINDATFLVVDTEKNEELLRKTCENLVFKSIPIVRLSPFDSRLRLGHSQTVKEQIIYFHIDNIELDELYSVIAIILELMTLHLDIELRIVTFRQDFQLDLLKTWIIDFIKTNHFEDLLFKQISEGENEIEDEGEIELSRIAMECFTNENQIIKCLDTARLVIDLGIEPDLYTQIASISAGIPQINRVSSDYVIHQKNGLVISDISKLSSAIEFYFDGLFNWNEALIYAVRKMSDYTSGKILKQWKGMLKKK",glycan array binding signal (z-score),[1],0.621
same,glycan array binding signal (z-score),[2],0.765
same,glycan array binding signal (z-score),[3],0.652
same,glycan array binding signal (z-score),[4],-1.02
same,glycan array binding signal (z-score),[5],-1.32
same,glycan array binding signal (z-score),[6],2.13
same,glycan array binding signal (z-score),[7],0.374
same,glycan array binding signal (z-score),[8],2.15
same,glycan array binding signal (z-score),[9],1.57
same,glycan array binding signal (z-score),[10],-0.062
same,glycan array binding signal (z-score),[11],-0.519
same,glycan array binding signal (z-score),[12],-0.095
same,glycan array binding signal (z-score),[13],0.475
same,glycan array binding signal (z-score),[14],-0.301
same,glycan array binding signal (z-score),[15],0.066
same,glycan array binding signal (z-score),[16],-0.151
same,glycan array binding signal (z-score),[17],0.578
same,glycan array binding signal (z-score),[18],-0.249
same,glycan array binding signal (z-score),[19],0.268
